Tests used:
[1] = Retention on control column, histidine coated gel; conditions: 37 °C, void time 1.6 min
[2] = Retention on control column, exposed silica gel; conditions: 37 °C, void time 1.6 min

Compound | Retention times, Histidine coated gel [1] [min] | Retention times, Exposed silica gel [2] [min]
CC(C)NCC(O)c1ccccc1Cl (centres unmarked) [clorprenaline] | 1.64 | 1.71
CN(C)C(=O)Oc1cc(OC(=O)N(C)C)cc(C(O)CNC(C)(C)C)c1 (centres unmarked) [bambuterol] | 1.59 | 1.56
CC(C)(C)NCC(O)c1ccc(O)c(CO)c1 (centres unmarked) [salbutamol] | 1.62 | 1.65
CC(C)(C)NCC(O)c1ccccc1Cl (centres unmarked) [tobuterol] | 1.67 | 1.58
